# Results are given in words; binding and its absence hold for the method and conditions named. In cells and extracts the contact can be indirect. Binding can be weak; no strength is given. Where a sequence is shown, tags or fusion partners need not be part of it.
# Target: HA-tagged TRIAD3B (E3 ubiquitin-protein ligase TRIAD3/RNF216, longest isoform) (human)
# Test: co-IP; HA-tagged TRIAD3B co-expressed with flag-tagged candidate in HEK293T; lysis in 125 mM Tris pH 7.5, 150 mM NaCl, 1% Triton X-100, 10% glycerol; anti-HA agarose 4 h at 4 °C; anti-flag immunoblot
row,binding,Binder
1,binds,"flag-tagged Ankrd13D (Ankyrin repeat domain-containing protein 13D) (protein, UniProt Q6ZTN6 1-605) MAGPGPTFPLHRLVWANRHRELEAALHSHQHDIEQEDPRGRTPLELAVSLGNLESVRVLLRHNANVGKENRQGWAVLQEAVSTGDPEMVQLVLQYRDYQRATQRLAGIPELLNKLRQAPDFYVEMKWEFTSWVPLVSKMCPSDVYRVWKRGESLRVDTSLLGFEHMTWQRGRRSFIFKGQEAGALVMEVDHDRQVVHVETLGLTLQEPETLLAAMRPSEEHVASRLTSPIVSTHLDTRNVAFERNKCGIWGWRSEKMETVSGYEAKVYSATNVELVTRTRTEHLSDQDKSRSKAGKTPFQSFLGMAQQHSSHTGAPVQQAASPTNPTAISPEEYFDPNFSLESRNIGRPIEMSSKVQRFKATLWLSEEHPLSLGDQVTPIIDLMAISNAHFAKLRDFITLRLPPGFPVKIEIPLFHVLNARITFSNLCGCDEPLSSVWVPAPSSAVAASGNPFPCEVDPTVFEVPNGYSVLGMERNEPLRDEDDDLLQFAIQQSLLEAGTEAEQVTVWEALTNTRPGARPPPQATVYEEQLQLERALQESLQLSTEPRGPGSPPRTPPAPGPPSFEEQLRLALELSSREQEERERRGQQEEEDLQRILQLSLTEH"
2,binds,"flag-tagged RNF41 (enzyme, UniProt Q9H4P4 1-317) MGYDVTRFQGDVDEDLICPICSGVLEEPVQAPHCEHAFCNACITQWFSQQQTCPVDRSVVTVAHLRPVPRIMRNMLSKLQIACDNAVFGCSAVVRLDNLMSHLSDCEHNPKRPVTCEQGCGLEMPKDELPNHNCIKHLRSVVQQQQTRIAELEKTSAEHKHQLAEQKRDIQLLKAYMRAIRSVNPNLQNLEETIEYNEILEWVNSLQPARVTRWGGMISTPDAVLQAVIKRSLVESGCPASIVNELIENAHERSWPQGLATLETRQMNRRYYENYVAKRIPGKQAVVVMACENQHMGDDMVQEPGLVMIFAHGVEEI"
